Measured values reported in publication doi:10.1101/2020.06.29.177584.
These are yes or no findings as the source states them, for the method shown. Binding seen in cells or lysates may run through a third protein. Some binding calls cover weakened binding; strength is not graded here. Where a sequence is shown, tags or fusion partners need not be part of it.

By UniProt entry, the sequences of proteins in these tests, tags left out. Where a name states a change or a piece, a line headed by the entry shows the natural chain unless it says otherwise. Residues count along the entry.
UniProt Q3URK3, whole entry, looked up, stated change not applied: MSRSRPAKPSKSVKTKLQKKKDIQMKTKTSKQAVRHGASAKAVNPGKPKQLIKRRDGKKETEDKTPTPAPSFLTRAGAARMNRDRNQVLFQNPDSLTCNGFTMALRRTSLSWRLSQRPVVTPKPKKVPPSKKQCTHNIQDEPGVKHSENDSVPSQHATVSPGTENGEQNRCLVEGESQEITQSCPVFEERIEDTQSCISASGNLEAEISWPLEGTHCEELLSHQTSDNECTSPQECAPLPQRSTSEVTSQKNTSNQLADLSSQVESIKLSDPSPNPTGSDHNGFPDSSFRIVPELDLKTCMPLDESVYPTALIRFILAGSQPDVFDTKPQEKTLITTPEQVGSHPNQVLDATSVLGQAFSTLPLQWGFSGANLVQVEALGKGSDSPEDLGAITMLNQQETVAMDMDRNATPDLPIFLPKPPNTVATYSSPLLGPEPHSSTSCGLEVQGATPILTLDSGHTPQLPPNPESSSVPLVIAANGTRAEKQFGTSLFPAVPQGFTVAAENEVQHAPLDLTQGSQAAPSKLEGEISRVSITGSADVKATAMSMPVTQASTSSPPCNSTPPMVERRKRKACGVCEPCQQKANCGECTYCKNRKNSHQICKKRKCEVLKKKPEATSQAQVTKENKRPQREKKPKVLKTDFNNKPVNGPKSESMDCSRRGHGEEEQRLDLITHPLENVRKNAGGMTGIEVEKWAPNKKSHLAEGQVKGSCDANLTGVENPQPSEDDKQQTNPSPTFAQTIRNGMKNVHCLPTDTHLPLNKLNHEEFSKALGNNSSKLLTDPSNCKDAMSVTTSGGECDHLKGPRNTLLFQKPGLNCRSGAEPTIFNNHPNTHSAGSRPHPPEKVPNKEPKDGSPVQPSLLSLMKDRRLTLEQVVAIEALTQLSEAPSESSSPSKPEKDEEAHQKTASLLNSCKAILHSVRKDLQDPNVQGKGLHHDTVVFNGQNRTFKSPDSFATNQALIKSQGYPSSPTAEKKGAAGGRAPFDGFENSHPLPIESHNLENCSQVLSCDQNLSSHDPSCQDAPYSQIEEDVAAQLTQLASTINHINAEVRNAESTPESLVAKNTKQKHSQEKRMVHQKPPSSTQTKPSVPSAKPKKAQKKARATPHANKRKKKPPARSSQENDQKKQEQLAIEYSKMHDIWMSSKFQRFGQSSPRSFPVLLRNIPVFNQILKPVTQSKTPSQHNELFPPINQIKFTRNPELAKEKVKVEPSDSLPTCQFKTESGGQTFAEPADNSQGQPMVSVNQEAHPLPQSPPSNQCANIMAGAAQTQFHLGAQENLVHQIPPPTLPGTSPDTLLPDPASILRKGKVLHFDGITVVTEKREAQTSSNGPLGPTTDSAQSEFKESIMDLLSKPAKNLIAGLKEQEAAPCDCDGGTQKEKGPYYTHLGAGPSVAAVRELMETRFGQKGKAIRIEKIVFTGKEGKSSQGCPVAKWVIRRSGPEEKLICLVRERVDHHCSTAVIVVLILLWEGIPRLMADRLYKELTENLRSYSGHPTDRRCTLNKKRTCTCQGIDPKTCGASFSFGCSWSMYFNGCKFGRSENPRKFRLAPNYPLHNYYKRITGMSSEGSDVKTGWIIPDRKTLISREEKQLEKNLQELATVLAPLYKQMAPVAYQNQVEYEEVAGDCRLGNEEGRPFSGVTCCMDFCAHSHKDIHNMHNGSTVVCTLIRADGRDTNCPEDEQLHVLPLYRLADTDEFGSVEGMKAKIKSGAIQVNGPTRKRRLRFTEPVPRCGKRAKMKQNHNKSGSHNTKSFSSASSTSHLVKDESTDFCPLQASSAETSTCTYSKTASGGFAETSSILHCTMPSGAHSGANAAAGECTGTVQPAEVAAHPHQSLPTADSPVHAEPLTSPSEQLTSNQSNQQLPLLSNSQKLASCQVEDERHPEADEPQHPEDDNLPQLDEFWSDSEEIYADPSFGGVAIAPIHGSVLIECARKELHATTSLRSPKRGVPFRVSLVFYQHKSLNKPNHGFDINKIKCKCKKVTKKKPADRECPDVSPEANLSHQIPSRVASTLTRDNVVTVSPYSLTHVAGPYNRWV
UniProt Q3URK3, 1-108: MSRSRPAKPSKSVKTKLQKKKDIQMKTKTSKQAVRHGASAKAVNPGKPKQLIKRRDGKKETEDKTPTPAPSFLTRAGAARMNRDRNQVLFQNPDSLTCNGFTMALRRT
UniProt Q3URK3, 1-1472: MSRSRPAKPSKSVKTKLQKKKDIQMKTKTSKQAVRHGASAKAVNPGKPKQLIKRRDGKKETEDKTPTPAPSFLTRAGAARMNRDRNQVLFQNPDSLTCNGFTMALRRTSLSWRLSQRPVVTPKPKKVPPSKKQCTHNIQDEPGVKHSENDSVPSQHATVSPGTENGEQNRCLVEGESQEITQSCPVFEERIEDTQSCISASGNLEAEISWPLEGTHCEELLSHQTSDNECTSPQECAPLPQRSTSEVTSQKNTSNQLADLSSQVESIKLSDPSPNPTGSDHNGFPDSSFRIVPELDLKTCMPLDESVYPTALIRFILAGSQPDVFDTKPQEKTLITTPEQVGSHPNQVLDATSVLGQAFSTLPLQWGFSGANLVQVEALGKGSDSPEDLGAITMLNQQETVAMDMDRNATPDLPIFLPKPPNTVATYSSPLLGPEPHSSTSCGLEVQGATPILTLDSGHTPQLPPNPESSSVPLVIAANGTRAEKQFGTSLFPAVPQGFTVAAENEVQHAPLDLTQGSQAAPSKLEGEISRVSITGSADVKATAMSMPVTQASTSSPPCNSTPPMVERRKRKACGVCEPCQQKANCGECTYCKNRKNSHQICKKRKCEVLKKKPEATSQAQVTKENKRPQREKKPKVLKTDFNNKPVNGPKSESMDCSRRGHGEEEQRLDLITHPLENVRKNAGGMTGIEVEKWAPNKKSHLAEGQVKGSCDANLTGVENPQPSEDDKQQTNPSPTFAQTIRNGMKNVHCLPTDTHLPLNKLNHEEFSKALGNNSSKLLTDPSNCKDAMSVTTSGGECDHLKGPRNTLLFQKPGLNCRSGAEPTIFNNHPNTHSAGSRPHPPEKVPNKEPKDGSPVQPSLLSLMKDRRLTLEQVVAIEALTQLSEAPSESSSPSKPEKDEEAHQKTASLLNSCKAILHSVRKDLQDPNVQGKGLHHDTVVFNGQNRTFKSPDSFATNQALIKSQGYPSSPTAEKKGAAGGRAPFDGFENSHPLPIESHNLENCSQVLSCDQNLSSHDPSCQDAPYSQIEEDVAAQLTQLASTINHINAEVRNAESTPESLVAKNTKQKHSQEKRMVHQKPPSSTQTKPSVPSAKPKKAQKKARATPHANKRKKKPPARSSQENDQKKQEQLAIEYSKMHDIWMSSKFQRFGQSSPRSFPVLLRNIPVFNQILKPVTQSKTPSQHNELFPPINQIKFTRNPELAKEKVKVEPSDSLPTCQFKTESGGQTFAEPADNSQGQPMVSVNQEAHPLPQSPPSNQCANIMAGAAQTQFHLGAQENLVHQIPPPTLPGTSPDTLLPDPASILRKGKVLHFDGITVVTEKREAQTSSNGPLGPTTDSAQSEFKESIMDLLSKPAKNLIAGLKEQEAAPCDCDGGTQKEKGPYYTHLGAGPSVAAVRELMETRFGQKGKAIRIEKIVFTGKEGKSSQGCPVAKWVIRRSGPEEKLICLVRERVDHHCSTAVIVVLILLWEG
UniProt Q3URK3, 1-1521: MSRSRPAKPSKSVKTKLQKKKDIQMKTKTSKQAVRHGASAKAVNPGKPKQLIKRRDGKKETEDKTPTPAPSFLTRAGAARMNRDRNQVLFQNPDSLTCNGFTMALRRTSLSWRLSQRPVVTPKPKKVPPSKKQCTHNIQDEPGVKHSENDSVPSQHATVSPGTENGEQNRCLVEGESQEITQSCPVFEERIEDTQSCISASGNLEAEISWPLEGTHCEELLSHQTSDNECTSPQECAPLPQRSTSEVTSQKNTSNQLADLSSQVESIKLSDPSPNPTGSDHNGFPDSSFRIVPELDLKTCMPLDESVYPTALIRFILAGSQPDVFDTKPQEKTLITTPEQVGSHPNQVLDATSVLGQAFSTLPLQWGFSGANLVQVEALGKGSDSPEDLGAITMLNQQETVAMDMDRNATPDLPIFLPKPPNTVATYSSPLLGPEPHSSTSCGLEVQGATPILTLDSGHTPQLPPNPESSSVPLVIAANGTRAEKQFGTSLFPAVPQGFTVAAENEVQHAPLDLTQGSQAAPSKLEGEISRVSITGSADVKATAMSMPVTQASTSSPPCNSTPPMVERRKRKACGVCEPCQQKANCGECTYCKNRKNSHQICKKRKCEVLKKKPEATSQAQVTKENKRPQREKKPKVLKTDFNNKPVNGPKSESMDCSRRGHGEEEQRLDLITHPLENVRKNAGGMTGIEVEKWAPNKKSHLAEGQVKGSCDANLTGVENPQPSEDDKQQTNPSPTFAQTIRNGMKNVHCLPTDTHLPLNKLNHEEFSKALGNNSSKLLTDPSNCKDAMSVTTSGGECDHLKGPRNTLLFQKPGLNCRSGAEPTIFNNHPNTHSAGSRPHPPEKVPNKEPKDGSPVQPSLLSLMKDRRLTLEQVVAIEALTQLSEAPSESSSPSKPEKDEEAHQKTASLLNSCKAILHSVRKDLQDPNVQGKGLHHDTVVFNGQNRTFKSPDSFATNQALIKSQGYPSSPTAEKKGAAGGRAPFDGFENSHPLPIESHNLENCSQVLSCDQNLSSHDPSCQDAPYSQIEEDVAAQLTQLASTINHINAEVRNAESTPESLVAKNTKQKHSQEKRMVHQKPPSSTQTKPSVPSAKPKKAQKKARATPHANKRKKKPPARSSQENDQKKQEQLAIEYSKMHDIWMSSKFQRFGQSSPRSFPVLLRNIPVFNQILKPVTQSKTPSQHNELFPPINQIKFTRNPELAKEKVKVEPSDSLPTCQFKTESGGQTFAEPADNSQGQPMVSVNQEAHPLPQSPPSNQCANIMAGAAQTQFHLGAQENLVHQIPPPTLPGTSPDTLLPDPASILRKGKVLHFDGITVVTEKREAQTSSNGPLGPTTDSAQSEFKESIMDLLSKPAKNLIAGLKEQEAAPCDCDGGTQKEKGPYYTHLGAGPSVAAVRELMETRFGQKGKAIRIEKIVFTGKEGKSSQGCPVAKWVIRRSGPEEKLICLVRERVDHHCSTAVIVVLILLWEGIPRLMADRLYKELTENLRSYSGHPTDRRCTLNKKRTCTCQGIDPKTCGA
UniProt Q3URK3, 734-1131: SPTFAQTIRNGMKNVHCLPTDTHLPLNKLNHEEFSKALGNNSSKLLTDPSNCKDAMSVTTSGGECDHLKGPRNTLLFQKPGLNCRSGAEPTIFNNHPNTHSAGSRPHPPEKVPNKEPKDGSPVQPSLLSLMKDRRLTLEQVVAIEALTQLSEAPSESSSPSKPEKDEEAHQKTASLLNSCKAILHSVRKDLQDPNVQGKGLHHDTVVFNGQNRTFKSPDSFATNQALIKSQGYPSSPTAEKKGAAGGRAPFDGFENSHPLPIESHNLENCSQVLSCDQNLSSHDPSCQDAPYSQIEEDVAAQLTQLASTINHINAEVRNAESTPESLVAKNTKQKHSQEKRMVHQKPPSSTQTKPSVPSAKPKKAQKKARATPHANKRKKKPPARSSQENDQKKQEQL
UniProt Q3URK3, 734-1169: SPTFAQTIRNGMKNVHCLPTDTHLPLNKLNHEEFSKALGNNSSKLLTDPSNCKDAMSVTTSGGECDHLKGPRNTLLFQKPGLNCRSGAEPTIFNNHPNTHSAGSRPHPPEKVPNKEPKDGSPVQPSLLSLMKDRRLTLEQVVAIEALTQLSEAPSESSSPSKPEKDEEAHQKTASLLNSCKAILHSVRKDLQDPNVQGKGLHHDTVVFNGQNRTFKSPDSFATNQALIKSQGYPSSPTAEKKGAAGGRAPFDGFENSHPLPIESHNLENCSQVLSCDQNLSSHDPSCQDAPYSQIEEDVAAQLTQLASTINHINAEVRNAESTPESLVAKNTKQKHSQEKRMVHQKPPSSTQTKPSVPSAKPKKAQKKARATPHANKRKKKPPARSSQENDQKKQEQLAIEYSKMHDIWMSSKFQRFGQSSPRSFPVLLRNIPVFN
UniProt Q3URK3, 734-1202: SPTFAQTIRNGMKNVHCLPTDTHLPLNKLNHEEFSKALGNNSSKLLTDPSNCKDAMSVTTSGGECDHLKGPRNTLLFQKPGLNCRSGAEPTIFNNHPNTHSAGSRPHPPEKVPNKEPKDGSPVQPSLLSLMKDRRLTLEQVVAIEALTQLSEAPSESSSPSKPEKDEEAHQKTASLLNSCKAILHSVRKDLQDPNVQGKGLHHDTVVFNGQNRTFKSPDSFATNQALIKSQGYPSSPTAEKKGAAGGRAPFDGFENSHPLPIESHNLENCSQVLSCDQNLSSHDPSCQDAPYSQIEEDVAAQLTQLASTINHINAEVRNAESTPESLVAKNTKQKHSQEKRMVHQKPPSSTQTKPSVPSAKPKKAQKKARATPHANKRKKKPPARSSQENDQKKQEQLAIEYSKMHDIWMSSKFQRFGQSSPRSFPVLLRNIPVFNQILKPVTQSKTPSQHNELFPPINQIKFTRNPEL

Experiments:
Assay in all cases: co-IP
[1] = molecular target: (Flag)3-TET1 1-1494 Δ1+2 (mouse) (UniProt Q3URK3)
[2] = molecular target: Full-length (Flag)3-TET1 Δ109-120 + Δ1132-1202 (Δ1+2) (mouse) (UniProt Q3URK3)
[3] = molecular target: (Flag)3-TET1 1-1472 (WT) (mouse) (UniProt Q3URK3)
[4] = molecular target: (Flag)3-TET1(734-1169) (mouse) (UniProt Q3URK3)
[5] = molecular target: (Flag)3-TET1 1-1521 (WT) (mouse) (UniProt Q3URK3)
[6] = molecular target: (Flag)3-TET1 1-1379 Δ1+2 (mouse) (UniProt Q3URK3)
[7] = molecular target: (Flag)3-TET1 734-1131 (mouse) (UniProt Q3URK3)
[8] = molecular target: (Flag)3-TET1 1-1521 Δ1+2 (mouse) (UniProt Q3URK3)
[9] = molecular target: (Flag)3-TET1 734-1202 (mouse) (UniProt Q3URK3)
[10] = molecular target: (Flag)3-TET1 734-2039 (mouse) (UniProt Q3URK3)
[11] = molecular target: (Flag)3-TET1(1-1547) Δ109-120 + Δ1132-1202 (Δ1+2) (mouse) (UniProt Q3URK3)
[12] = molecular target: (Flag)3-TET1 1-108 (mouse) (UniProt Q3URK3)

Measured: binding

B1: (HA)3-NANOG (protein, UniProt Q80Z64 1-305)
chain: MSVGLPGPHSLPSSEEASNSGNASSMPAVFHPENYSCLQGSATEMLCTEAASPRPSSEDLPLQGSPDSSTSPKQKLSSPEADKGPEEEENKVLARKQKMRTVFSQAQLCALKDRFQKQKYLSLQQMQELSSILNLSYKQVKTWFQNQRMKCKRWQKNQWLKTSNGLIQKGSAPVEYPSIHCSYPQGYLVNASGSLSMWGSQTWTNPTWSSQTWTNPTWNNQTWTNPTWSSQAWTAQSWNGQPWNAAPLHNFGEDFLQPYVQLQQNFSASDLEVNLEATRESHAHFSTPQALELFLNYSVTPPGEI
binds weakly: [3] | [5]
binds: [2] | [4] | [9] | [10] | [11]
no binding: all other assays above
